Measurements reported in PubChem BioAssay AID1159578 (Peter MacCallum Cancer Centre, 2015)
The whole screen tested about 18,000 reagents; below is a part drawn at random. About 1,030 of all reagents (5.7%) count as active. 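Inactive calls also include pools with fewer than 3300 nuclei, whose migration was not assessed.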 Raw values vary from plate to plate and are shown uncorrected. Further read-outs or replicates are left out here.

Test: 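Knock-downs that alter how fast lymphatic endothelial cells migrate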 (primary screen)
System: human lymphatic endothelial cells
Reagent: siRNA pool against human genes, 40 nM
Timing: 48 h after transfection
Measured: 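Cells stained with dye and imaged after a scratch; covered wound area and nuclei counted, duplicates averaged, migration set against mock wells and turned into a robust z-score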
Scale: migration robust z-score: higher = faster migration into the scratch; nuclei per well: higher = more cells in the well
Hit rule: 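Migration changed when robust z exceeds 2 or falls below -2 and mean nuclei number is at least 3300; otherwise not called changed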
Calls: active = migration changed; inactive = no migration change, or too few cells

{"gene symbol": "ATP5MF", "migration robust z-score": 1.94, "migration class with cell-count check": "migration z between -2 and 2; enough cells", "nuclei per well, duplicate mean": 6031, "outcome": "inactive"}
{"gene symbol": "ZNF324", "migration robust z-score": -0.76, "migration class with cell-count check": "migration z between -2 and 2; enough cells", "nuclei per well, duplicate mean": 5569, "outcome": "inactive"}
{"gene symbol": "GPR87", "migration robust z-score": -1.2, "migration class with cell-count check": "migration z between -2 and 2; enough cells", "nuclei per well, duplicate mean": 5043, "outcome": "inactive"}
{"gene symbol": "VMA21", "migration robust z-score": 0.54, "migration class with cell-count check": "migration z between -2 and 2; enough cells", "nuclei per well, duplicate mean": 5646, "outcome": "inactive"}
{"gene symbol": "RAD18", "migration robust z-score": -0.34, "migration class with cell-count check": "migration z between -2 and 2; enough cells", "nuclei per well, duplicate mean": 6086, "outcome": "inactive"}

Sorted by “nuclei per well, duplicate mean” (low to high): some entries from above
{"gene symbol": "ZNF324", "migration robust z-score": -0.76, "migration class with cell-count check": "migration z between -2 and 2; enough cells", "nuclei per well, duplicate mean": 5569, "outcome": "inactive"}
{"gene symbol": "ATP5MF", "migration robust z-score": 1.94, "migration class with cell-count check": "migration z between -2 and 2; enough cells", "nuclei per well, duplicate mean": 6031, "outcome": "inactive"}

Further results follow.
{"gene symbol": "YKT6", "migration robust z-score": 1.12, "migration class with cell-count check": "migration z between -2 and 2; enough cells", "nuclei per well, duplicate mean": 5711, "outcome": "inactive"}
{"gene symbol": "RAB21", "migration robust z-score": 0.21, "migration class with cell-count check": "migration z between -2 and 2; enough cells", "nuclei per well, duplicate mean": 5659, "outcome": "inactive"}
{"gene symbol": "CDYL", "migration robust z-score": -0.29, "migration class with cell-count check": "migration z between -2 and 2; enough cells", "nuclei per well, duplicate mean": 5218, "outcome": "inactive"}
{"gene symbol": "AMMECR1L", "migration robust z-score": 0.17, "migration class with cell-count check": "migration z between -2 and 2; enough cells", "nuclei per well, duplicate mean": 5607, "outcome": "inactive"}
{"gene symbol": "CWC15", "migration robust z-score": 0.15, "migration class with cell-count check": "migration z between -2 and 2; enough cells", "nuclei per well, duplicate mean": 6633, "outcome": "inactive"}
{"gene symbol": "PITPNM3", "migration robust z-score": -1.12, "migration class with cell-count check": "under 3300 nuclei; migration not judged", "nuclei per well, duplicate mean": 2999, "outcome": "inactive"}
{"gene symbol": "CRTC1", "migration robust z-score": -0.31, "migration class with cell-count check": "migration z between -2 and 2; enough cells", "nuclei per well, duplicate mean": 5444, "outcome": "inactive"}
